According to article PMC6244289:
These are yes or no findings as the source states them, for the method shown. Binding seen in cells or lysates may run through a third protein. Some entries that bind do so weakly or less than the wild type.

Sequences of proteins named here, by UniProt entry; tags and fusion partners are left off.
UniProt Q92538: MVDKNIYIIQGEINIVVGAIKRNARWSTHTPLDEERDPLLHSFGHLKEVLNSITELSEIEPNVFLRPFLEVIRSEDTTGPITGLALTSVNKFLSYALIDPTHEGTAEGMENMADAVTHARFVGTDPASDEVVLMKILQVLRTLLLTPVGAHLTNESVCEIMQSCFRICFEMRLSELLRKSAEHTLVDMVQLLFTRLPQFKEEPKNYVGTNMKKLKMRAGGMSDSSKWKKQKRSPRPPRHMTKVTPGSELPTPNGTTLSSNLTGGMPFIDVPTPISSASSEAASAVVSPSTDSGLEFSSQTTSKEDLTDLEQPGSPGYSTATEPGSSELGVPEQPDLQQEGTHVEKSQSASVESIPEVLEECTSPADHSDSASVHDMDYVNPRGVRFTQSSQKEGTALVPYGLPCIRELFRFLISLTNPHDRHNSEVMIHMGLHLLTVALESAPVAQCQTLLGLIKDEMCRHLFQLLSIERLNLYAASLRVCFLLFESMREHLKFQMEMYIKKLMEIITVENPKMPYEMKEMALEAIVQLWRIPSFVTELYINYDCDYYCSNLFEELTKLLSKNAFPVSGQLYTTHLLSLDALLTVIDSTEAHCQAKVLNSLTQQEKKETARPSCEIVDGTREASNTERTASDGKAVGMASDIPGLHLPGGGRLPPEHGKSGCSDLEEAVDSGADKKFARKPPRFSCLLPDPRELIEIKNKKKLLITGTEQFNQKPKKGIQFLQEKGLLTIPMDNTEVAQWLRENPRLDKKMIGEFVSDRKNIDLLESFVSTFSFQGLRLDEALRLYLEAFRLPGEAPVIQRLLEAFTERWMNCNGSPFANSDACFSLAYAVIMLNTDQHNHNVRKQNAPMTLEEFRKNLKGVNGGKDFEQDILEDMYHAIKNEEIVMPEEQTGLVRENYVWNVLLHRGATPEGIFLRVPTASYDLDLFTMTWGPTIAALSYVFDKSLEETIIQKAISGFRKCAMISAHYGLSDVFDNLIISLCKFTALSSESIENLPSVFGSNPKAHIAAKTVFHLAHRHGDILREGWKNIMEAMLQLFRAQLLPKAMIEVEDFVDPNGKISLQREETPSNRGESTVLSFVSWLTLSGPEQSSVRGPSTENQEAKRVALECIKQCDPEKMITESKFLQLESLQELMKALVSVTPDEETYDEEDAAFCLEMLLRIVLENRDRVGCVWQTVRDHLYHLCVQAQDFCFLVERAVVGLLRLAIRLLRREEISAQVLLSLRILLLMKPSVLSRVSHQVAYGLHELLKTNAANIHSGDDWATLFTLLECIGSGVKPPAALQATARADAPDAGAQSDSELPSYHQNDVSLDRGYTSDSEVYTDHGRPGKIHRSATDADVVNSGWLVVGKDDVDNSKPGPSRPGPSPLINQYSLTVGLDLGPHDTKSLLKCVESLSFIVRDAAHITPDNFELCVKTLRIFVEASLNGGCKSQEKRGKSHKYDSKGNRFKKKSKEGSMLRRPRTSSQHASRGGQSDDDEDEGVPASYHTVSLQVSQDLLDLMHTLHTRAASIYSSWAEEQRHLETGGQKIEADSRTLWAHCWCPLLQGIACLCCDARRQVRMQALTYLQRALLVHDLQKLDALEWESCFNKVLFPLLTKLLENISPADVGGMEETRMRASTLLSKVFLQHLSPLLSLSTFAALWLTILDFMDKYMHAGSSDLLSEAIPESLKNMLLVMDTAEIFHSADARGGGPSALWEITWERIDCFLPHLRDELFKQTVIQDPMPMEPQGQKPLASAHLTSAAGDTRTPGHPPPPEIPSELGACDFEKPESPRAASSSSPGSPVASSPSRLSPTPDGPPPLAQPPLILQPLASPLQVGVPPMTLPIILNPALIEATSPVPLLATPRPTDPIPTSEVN
UniProt Q8IXI2: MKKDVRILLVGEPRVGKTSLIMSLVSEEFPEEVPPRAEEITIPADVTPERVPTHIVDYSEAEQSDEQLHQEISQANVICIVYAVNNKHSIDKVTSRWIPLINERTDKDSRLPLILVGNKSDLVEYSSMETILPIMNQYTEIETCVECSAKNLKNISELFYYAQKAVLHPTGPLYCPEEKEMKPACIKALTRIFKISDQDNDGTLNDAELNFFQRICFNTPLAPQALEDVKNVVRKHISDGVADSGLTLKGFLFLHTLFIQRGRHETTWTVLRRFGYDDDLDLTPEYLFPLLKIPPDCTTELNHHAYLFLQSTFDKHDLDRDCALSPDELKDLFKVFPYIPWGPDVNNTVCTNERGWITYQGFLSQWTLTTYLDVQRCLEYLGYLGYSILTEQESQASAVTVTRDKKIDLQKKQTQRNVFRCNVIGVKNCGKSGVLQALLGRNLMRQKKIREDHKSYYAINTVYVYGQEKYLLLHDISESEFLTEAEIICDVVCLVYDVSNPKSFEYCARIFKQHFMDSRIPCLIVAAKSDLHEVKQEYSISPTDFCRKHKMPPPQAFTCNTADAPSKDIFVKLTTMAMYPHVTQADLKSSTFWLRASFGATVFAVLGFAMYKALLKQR

Biological target: Venus-GBF1 (human) (UniProt Q92538)
Assay: co-IP; RPE1 cells cotransfected with Venus-GBF1 and Myc-Miro1 or Myc-Miro2; lysis in 50 mM Tris-HCl pH 7.5, 100 mM NaCl, 1 mM EDTA, 0.5% NP40; precipitation of Venus-GBF1 with GFP Binding Protein (GBP)-AminoLink resin, 1h30 at 4 °C; Western blot with anti-GFP and anti-Myc

## myc-Miro1 (from UniProt Q8IXI2 1-618)
  binding: binds
